# For at least one compound, name, drawing or mass did not settle the structure.
# How the values were obtained:
# [1] = tested on: S. pneumoniae; test: MIC by agar plate dilution against clinical isolates of S. pneumoniae; type: cell-based; conditions: 6 strains of S. pneumoniae (clinical isolates), 18 to 24 hr, 35° C
# Description: (§1) Minimal Inhibitory concentrations (MIC) of inhibitors against clinical isolates of S. pneumoniae, H. influenzae and M. catarrhalis obtained from the Public Health and Clinical Microbiology Laboratory, Addenbrooke's Hospital, Hills Road, Cambridge CB2 2QW, UK, were determined by a standard agar plate dilution method following recommended in British Society for Antimicrobial Chemotherapy Working Party. 1991. “A guide to sensitivity testing British Society for Antimicrobial Chemotherapy, London, United Kingdom”. Briefly Iso-Sensitest agar (pH 7.2: Oxoid, United Kingdom) was employed supplemented with 5% horse blood (Oxoid) and 20 μg of NAD (Sigma) per ml to support growth of fastidious bacteria. The inoculum used was approximately 10^4 colony forming units of each isolate contained in a volume of 1 μl. Plates were incubated 18 to 24 hr in air, or for fastidious bacteria an atmosphere enriched with 4–6% carbon dioxide at 35° C. The MIC was determined as the lowest concentration of an antimicrobial tested that inhibited growth of the inoculum, disregarding a single persisting colony or faint haze caused by the inoculation.
# (§2) The compounds of the Examples were are antibacterially active in the above assays, The following table states the MICs or MIC ranges of the tested compounds against 6 strains of S. pneumoniae, 4 strains of H. influenzae and 3 strains of M. catarrhalis.
# [2] = tested on: H. influenzae; test: MIC by agar plate dilution against clinical isolates of H. influenzae; type: cell-based; parameters: unit not given beside the values; conditions: 4 strains of H. influenzae (clinical isolates), 18 to 24 hr, 35° C
# Description: as §1, §2
SMILES,"MIC or MIC range, S. pneumoniae [1]","MIC or MIC range, H. Influenzae [2]"
"CN(C(=O)N1CCCN1C(=O)[C@H](CC1CCCC1)CN(O)C=O)c1ccccc1 [Example 43, 2-[(2R)-Cyclopentylmethyl-3-(formylhydroxyamino)-propionyl]-pyrazolidine-1-Carboxylic acid methylphenylamide]",8->32,
"O=CN(O)C[C@@H](CC1CCCC1)C(=O)N1CCCCN1C(=O)Nc1cc(C(F)(F)F)cc(C(F)(F)F)c1 [Example 13, 2-[(2R)-Cyclopentylmethyl-3-(formylhydroxyamino)-propionyl]-tetrahydropyridazine-1-Carboxylic acid (3,5-bis-(trifluoromethyl)phenyl)amide]",,8->16

# Reference: patent US7192953B2, “Antibacterial agents” (Vernalis (Oxford) Limited, priority 2002, dated 2007)
